# Drug screen on melanoma cell lines: cell count

Drugs:
GW441756 (0.4 µM): Cn1cc(/C=C2\C(=O)Nc3cccnc32)c2ccccc21
A-769662 (2 µM): N#Cc1c(O)c2c(-c3ccc(-c4ccccc4O)cc3)csc2[nH]c1=O
Src-I1 (2 µM): COc1cc2ncnc(Nc3ccc(Oc4ccccc4)cc3)c2cc1OC
PLX4720 (0.08 µM): CCCS(=O)(=O)Nc1ccc(F)c(C(=O)c2c[nH]c3ncc(Cl)cc23)c1F
L-779450 (0.2 µM): Oc1cc(-c2nc(-c3ccccc3)[nH]c2-c2ccncc2)ccc1Cl
IMD-0354 (0.016 µM): O=C(Nc1cc(C(F)(F)F)cc(C(F)(F)F)c1)c1cc(Cl)ccc1O
NVP-TAE684 (0.08 µM): COc1cc(N2CCC(N3CCN(C)CC3)CC2)ccc1Nc1ncc(Cl)c(Nc2ccccc2S(=O)(=O)C(C)C)n1
FH535 (1 µM): Cc1cc([N+](=O)[O-])ccc1NS(=O)(=O)c1cc(Cl)ccc1Cl
embelin (1.2 µM): CCCCCCCCCCCC1=C(O)C(=O)C=C(O)C1=O

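Human melanoma cell lines in 1,536-well plates were treated with two drugs together for 72 h, then fixed, stained and imaged. Values are the number of DAPI-stained nuclei as a percentage of the DMSO control: 100 is no effect, lower means fewer cells. Concentrations were fixed for each drug; these are the lower of two levels, a fifth of the higher. No replicate spread is given; individual values may be noisy.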
An unselected part of the screen is shown.

| # | Pair | 501mel |
|---|---|---|
| 1 | A-769662 + FH535 | 91.4 |
| 2 | A-769662 + embelin | 106 |
| 3 | NVP-TAE684 + IMD-0354 | 85.2 |
| 4 | L-779450 + GW441756 | 58.1 |
| 5 | embelin + L-779450 | 73.9 |
| 6 | A-769662 + NVP-TAE684 | 100 |
| 7 | NVP-TAE684 + embelin | 83.0 |
| 8 | FH535 + embelin | 97.9 |
| 9 | GW441756 + NVP-TAE684 | 83.5 |
| 10 | Src-I1 + A-769662 | 106 |
| 11 | L-779450 + A-769662 | 88.9 |
| 12 | PLX4720 + Src-I1 | 91.0 |
| 13 | Src-I1 + L-779450 | 82.4 |
| 14 | embelin + Src-I1 | 92.5 |
| 15 | PLX4720 + NVP-TAE684 | 111 |
| 16 | FH535 + NVP-TAE684 | 104 |
| 17 | Src-I1 + NVP-TAE684 | 94.7 |
| 18 | L-779450 + NVP-TAE684 | 85.4 |
| 19 | A-769662 + IMD-0354 | 106 |
| 20 | IMD-0354 + L-779450 | 69.8 |
| 21 | Src-I1 + IMD-0354 | 67.5 |

For reference, 2 entries once more:

Pair	501mel
Src-I1 + A-769662	106
IMD-0354 + L-779450	69.8

Source: doi:10.1371/journal.pone.0140310, primary screening data, rounded.